PubChem BioAssay AID1487 (National Center for Advancing Translational Sciences (NCATS), 2009)
Some of the results follow. Shown are side measurements of this screen, not its main read-out; they come without a call. Most of these compounds were active or inconclusive in the main read-out, so they are no random draw. The note in brackets gives the kind of curve behind each potency; many fits are weak.

Assay: qHTS Assay for Modulators of Lamin A Splicing
Settings: HeLa LMNA splicing GFP/RFP minigene ratio, 48 h
Procedure, shortened: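 S3 HeLa stable clones carrying a lamin A-EGFP splicing minigene plus DsRed2 were seeded at 600 cells/well in Opti-MEM with 2% FBS, pin-dosed and incubated 48 h at 37°C. Acumen cytometry (488 nm) gave the GFP/RFP total-intensity ratio.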

[1] = measured here: RFP viability control channel
[2] = measured here: GFP splicing reporter channel

For CS(=O)(=O)N(CC(=O)Nc1ccccc1Sc1ccccc1)c1cccc(Br)c1, the AC50 [1] was 22.4 µM [rising, single point].
In the case of Cc1cccc(NC(=O)Nc2ccc(Oc3c(F)c(F)c(F)c(F)c3F)cc2)c1, the AC50 [2] is reported as 17.8 µM [rising, partial curve] and the AC50 [1] is reported as 14.1 µM [rising, partial curve].
For C=CCn1c(SCC(=O)N2CCOCC2)nc2scc(-c3ccco3)c2c1=O, the AC50 [2] was 7.94 µM [rising, partial curve].
For CC1CC1c1ccc(/C=C(\C#N)C(=O)Nc2cccc(Cl)c2Cl)o1 (configuration not stated), the AC50 [1] was 12.6 µM [rising, partial curve].
For Cc1ccc2c(C)nc(Nc3nc(CSc4nnc(C)s4)cc(=O)[nH]3)nc2c1, the AC50 [2] was 35.5 µM [falling, single point].
In the case of O=C(Nc1ccccc1N1CCN(C(=O)c2ccccc2)CC1)c1ccc2c(c1)OCO2, the AC50 [1] is reported as 2 µM [rising, partial curve].
In the case of CCOc1ccc(CC(=O)Nc2ccc3c(c2)N(C)C(=O)c2ccccc2S3)cc1OCC, the AC50 [2] is reported as 3.55 µM [falling, full curve].
With COC(=O)c1oc(-c2ccc(Cl)cc2)nc1C the AC50 [1] was 0.0891 µM [rising, full curve, poor fit].
For COc1ccc(CNc2nc(S(=O)(=O)c3ccccc3)c(Cl)s2)cc1OC, the AC50 [1] was 8.91 µM [rising, partial curve].
For CCCCN(CC)S(=O)(=O)c1ccc2c(c1)CCCN2C(C)=O, the AC50 [2] was 20 µM [rising, single point] and the AC50 [1] was 35.5 µM [rising, single point].
In the case of COCCNC(=O)c1c(N)n(-c2ccccc2)c2nc3ccccc3nc12, the AC50 [2] is reported as 6.31 µM [falling, single point] and the AC50 [1] is reported as 5.62 µM [falling, single point].
In the case of Cc1ccc(C(=O)c2coc3cc([N+](=O)[O-])c(O)c([N+](=O)[O-])c23)cc1, the AC50 [1] is reported as 12.6 µM [rising, partial curve].
For CCOc1ccccc1C(=O)NCC(=O)O, the AC50 [1] was 22.4 µM [falling, single point].
In the case of CCOC(=O)N1CCc2c(sc(NCc3sccc3C)c2C(=O)Nc2cc(OC)ccc2OC)C1, the AC50 [2] is reported as 15.8 µM [falling, partial curve, poor fit].
With Cc1c(C(=O)Nc2ccc(-c3nnc4n3CCCCC4)cc2)oc2c1ccc1ccccc12 the AC50 [2] was 35.5 µM [falling, single point] and the AC50 [1] was 35.5 µM [falling, single point].
With Brc1ccc2c(c1)CNc1c(ncnc1N1CCOCC1)O2 the AC50 [1] was 28.2 µM [rising, partial curve].
With CCC(=O)Nc1cccc(C(=O)/C=C/c2ccc(F)cc2)c1 the AC50 [1] was 35.5 µM [rising, single point].
With COc1ccc(OC)c(/C=C/C(=O)c2ccc(Cl)cc2)c1 the AC50 [2] was 17.8 µM [falling, partial curve] and the AC50 [1] was 22.4 µM [falling, partial curve].
For COc1ccc(OCC(=O)Nc2cccc3cccnc23)cc1, the AC50 [2] was 12.6 µM [rising, partial curve, poor fit] and the AC50 [1] was 11.2 µM [rising, partial curve, poor fit].
In the case of CN(Cc1ccccc1)C(=O)c1ccc2c(c1)NC(=O)C(N1CCOCC1)S2 (configuration not stated), the AC50 [2] is reported as 1.78 µM [rising, partial curve].
In the case of O=[N+]([O-])c1ccc2nc(/C=C/c3ccc(Cl)cc3)[nH]c2c1, the AC50 [1] is reported as 5.62 µM [falling, partial curve, poor fit].
In the case of CC1(C)Cc2c(C#N)c(NCCc3ccccc3)nc(-c3ccco3)c2CO1, the AC50 [2] is reported as 11.2 µM [rising, partial curve] and the AC50 [1] is reported as 8.91 µM [rising, partial curve].
For Cc1cccc(N2CCN(C(=O)c3cc4c(=O)n(C)c5ccccc5c4n3C)CC2C)c1 (configuration not stated), the AC50 [1] was 35.5 µM [rising, single point].
With COc1ccc(Oc2ccc(N/C=C3\CCCC3=O)cc2)cc1 the AC50 [1] was 3.98 µM [rising, partial curve, poor fit].
In the case of CCCCCCCCCCOC(=O)NC1CCS(=O)(=O)C1 (configuration not stated), the AC50 [2] is reported as 0.708 µM [rising, full curve, poor fit].
With CC(NC(=O)c1ccccc1)C(=O)N/N=C/c1ccc(O)cc1 (configuration not stated) the AC50 [1] was 0.398 µM [falling, full curve, poor fit].
With Oc1c(C(c2ccccc2F)N2CCOCC2)sc2nc(-c3ccco3)nn12 (configuration not stated) the AC50 [2] was 35.5 µM [rising, single point].
In the case of CC(=O)c1cc(C(=O)c2ccccc2)sc1Nc1ccccc1, the AC50 [2] is reported as 35.5 µM [rising, single point] and the AC50 [1] is reported as 31.6 µM [rising, single point].
In the case of CCOC(=O)C1=C(C)OC(N)=C(C#N)C1c1cc2c(cc1[N+](=O)[O-])OCO2 (configuration not stated), the AC50 [2] is reported as 0.0891 µM [rising, full curve, poor fit].
In the case of Cc1ccccc1-n1cc(C(=O)c2cc(Cl)ccc2O)cc(C#N)c1=O, the AC50 [2] is reported as 10 µM [rising, partial curve] and the AC50 [1] is reported as 12.6 µM [rising, partial curve].
In the case of CCOc1ccc(Br)cc1S(=O)(=O)Nc1ccc(NC(=O)c2ccccc2F)cc1, the AC50 [2] is reported as 20 µM [rising, partial curve, poor fit] and the AC50 [1] is reported as 17.8 µM [rising, partial curve, poor fit].
With CC(NC(=O)CSc1n[nH]c(-c2ccccc2Cl)n1)c1nc2ccccc2n1C (configuration not stated) the AC50 [1] was 5.62 µM [falling, partial curve].
With CCN(c1ccccc1)S(=O)(=O)c1ccc2[nH]cc(C(=O)NC3CCCCC3)c(=O)c2c1 the AC50 [2] was 35.5 µM [falling, partial curve] and the AC50 [1] was 25.1 µM [falling, partial curve].
For CCOC(=O)c1[nH]c2ccc(OC)cc2c1NC(=S)N1CCN(c2cccc(C)c2C)CC1, the AC50 [2] was 35.5 µM [falling, single point] and the AC50 [1] was 1.41 µM [rising, partial curve].
With CCOC(=O)N1CCN(C(=O)CSc2nnc(-c3cccc(OC)c3)o2)CC1 the AC50 [2] was 20 µM [rising, single point].
